This is an account of results in article PMC5114727, “Biological characterization of chemically diverse compounds targeting the Plasmodium falciparum coenzyme A synthesis pathway” (Parasites & Vectors, 2016).

The structures appear in SMILES notation.

Assay [1] has as its system late stage gametocytes (stage IV to V) of P. falciparum line NF54^Pfs16. The assay can be described thus: Gametocyte luciferase assay, late stage. The settings on record: toxicity of the intermediate alone. In kind it is cell-based, Plasmodium falciparum. From the text: (§1) To investigate a potential role of CoA biosynthesis for host to vector transmission of the malaria parasite, we investigated the activity of our compounds on P. falciparum gametocytes, the sexual stages of P. falciparum, essential for malaria transmission. […] Parasite stage-specificity and gametocytocidal activity of the compounds was therefore investigated, utilizing a luciferase-based approach on early stage (development from stage I to IIb/III [30]) and late stage (IV to V [51]) gametocytes.
(§2) Induction of P. falciparum gametocyte differentiation and gametocyte culturing were performed as previously described. Compound activity against early stage gametocytes (covering the development from stage I to IIb/III) and late stage gametocytes (stage IV to V) of the recombinant P. falciparum line NF54^Pfs16 was assessed in concentration-response assays, in two experimental replicates consisting of two technical repeats each, at a highest concentration of 40 μM, as described earlier.

Assay [2] has as its system P. falciparum asexual blood stage. The assay is described as follows: microbe, parasite or virus in culture. The following applies: Plasmodium falciparum, read-out: IC50 of pathway intermediate on asexual blood stage P. falciparum. The protocol: An imaging based assay was utilised to assess the chemical rescue on asexual stages of P. falciparum as described previously. All the pathway intermediates were purchased from Sigma. CoA and dP-CoA were dissolved in sterile distilled water to obtain a 20 mM stock solution, which was then aliquoted and stored at -20 °C until use. […] Each pathway intermediate was tested on the parasites at a range of concentrations to assess potential toxicity. […] On early stage P. falciparum gametocytes the same concentrations as for CoA were tested for dP-CoA; against asexual blood stage P. falciparum, late stage gametocytes and Trypanosoma b. brucei five dP-CoA concentrations were tested (2 mM, 1.5 mM, 1 mM, 0.75 mM and 0.5 mM).

Assay [3] concerns T. b. brucei trypomastigote. The assay can be described thus: T. b. brucei resazurin (Alamar Blue) viability assay. The following applies: Trypanosoma brucei, read-out: IC50 of pathway intermediate on T. b. brucei. It is filed as cell-based. The protocol:
Compound activity against two members of another clinically important group of parasites, the kinetoplastids T. cruzi and T. b. brucei was determined. The sensitive high content imaging assay used to determine compound activity against T. cruzi assesses the intracellular amastigote life form of the parasite in the 3T3 host cell. […] The T. b. brucei assay employs the REDOX indicator Alamar Blue to assess viability, which was developed into a 384-well assay format.
Compound activity against T. b. brucei was assessed in a resazurin-based viability assay in concentration-response assays, without technical repeats, in two experimental replicates at a highest concentration of 40 μM, as previously described.
On the technique in general: The colour change of resazurin is a common sign of viable cells or microbes.

In assay [4] the test system is early stage gametocytes (stage I to IIb/III) of P. falciparum line NF54^Pfs16. The assay can be described thus: Gametocyte luciferase assay, early stage. In kind it is cell-based, Plasmodium falciparum. The following applies: toxicity of the intermediate alone.
Text: as §1, §2

For the compound `CC(C)(CO)[C@@H](O)C(=O)NCCC(=O)NCCSSCCNC(=O)CCNC(=O)[C@H](O)C(C)(C)CO` [pantethine, reference compound], the “concentration showing no toxic effect, late stage gametocytes” value in assay [1] was “up to 10 mM”. Further, the IC50 (in general, the concentration that gives 50% inhibition) in assay [2] was 5 mM; in assay [3], 1.2 mM. Moreover, the “concentration showing no toxic effect, early stage gametocytes” value in assay [4] is “up to 10 mM”.
